Test results from PubChem BioAssay AID493014 (National Center for Advancing Translational Sciences (NCATS), 2011).
The whole screen tested about 340,000 compounds, of which about 170 (0.05%) were called active. Inconclusive means that the source gave no clear call. Such entries were picked first, then a sample of the others. The call rests on the fitted dose curve; in most records, active means well fitted inhibition curve with a large enough effect in the signal ratio, with a control signal flat (not every such curve was filed as active); inconclusive means small, poorly fitted or top-dose-only effect, or effect the other way, or a change in a side signal; inactive means flat fitted curve, though single readings scatter; the % refers to the signal ratio. Potencies of inconclusive entries are doubtful fits and often do not repeat.

Assay: qHTS Assay to Find Inhibitors of Chronic Active B-Cell Receptor Signaling;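 on activity change, negative = inhibition: plate controls were basal doxycycline-induced cells for no effect and cells given 10 µM MG132 for full effect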
Conditions: ABC-DLBCL IkBa-CBG/CBR reporter, luminescence ratio (green luciferase fused to IkBa over red control in TMD8 lymphoma cells), 4 h; activity change, negative = inhibition: at 46.1 µM (top of the series)
Summary of the method: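 TMD8 human ABC-DLBCL cells with doxycycline-inducible IκBα–green luciferase fusion and unfused red luciferase, in 0.5% FBS medium; compounds up to 46 uM, 4 h at 37C. Green/red luminescence ratio, filter-overlap corrected, fitted to concentration-response curves.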
Potency means the concentration at half of the fitted maximal effect.

SMILES	activity change, negative = inhibition	Potency
CCOC(=O)c1ccc(NC(=S)NC(=O)COc2ccccc2)cc1	inconclusive: -0.714%	–
O=C(N/C(=C/C=C/c1ccccc1)C(=O)N1CCOCC1)c1ccccc1Br	–	inconclusive: 12.6 µM [falling, single point]
O=C(N/N=C/c1ccccn1)c1cc(-c2ccc3ccccc3c2)n[nH]1	–	inconclusive: 5.8 µM [rising, partial curve]
CCN(CC(=O)Nc1ccc2c(c1)OCCO2)C(=O)c1ccc(Cl)cc1Cl	inconclusive: 19.2%	–
C[C@H](CO)N1C[C@H](C)[C@@H](CN(C)C(=O)NC2CCCCC2)Oc2ccc(NS(=O)(=O)c3cccs3)cc2C1=O	inconclusive: 1.62%	–
Cn1c(=N)n(CC(O)c2ccco2)c2ccccc21 (stereo not drawn)	inconclusive: -0.322%	–
CC(c1ccon1)N(C)C(=O)CCc1nnc(Cc2ccc(-c3ccccc3)cc2)o1 (stereo not drawn)	–	inconclusive: 35.5 µM [falling, single point]
CN(C)c1ccc(/C=N/NC(=O)c2ccn(C)n2)cc1	–	inconclusive: 4.47 µM [falling, partial curve]
c1cncc(-c2nc(NCCCn3ccnc3)c3ccccc3n2)c1	inconclusive: -14.1%	–
CC/C(=N\NC(=O)c1cc(C)nc2ccccc12)c1ccc(C)s1	inconclusive: -8.33%	–
CCN(C(C)=O)c1cccc2ccccc12	–	inconclusive: 2.31 µM [falling, partial curve, poor fit]
CCCOc1cccc(C(=O)NC(=S)Nc2cccc(NC(=O)c3ccccc3Cl)c2)c1	inconclusive: -11.6%	–
CN(CC(=O)Nc1ccccc1C(=O)Nc1ccccc1)C1CCCCC1	inconclusive: 1.85%	–
CC(=C/c1ccccc1)/C=N/NC(=O)c1cccs1	–	inconclusive: 14.1 µM [falling, partial curve]
O=C(CC1SC(=O)N(c2ccccc2)C1=O)Nc1ccccc1 (stereo not drawn)	–	inconclusive: 15.8 µM [falling, partial curve, poor fit]
Cc1ccc2nc(N(Cc3cccnc3)C(=O)c3cccs3)sc2c1	–	inconclusive: 8.91 µM [falling, partial curve, poor fit]
O=c1c([N+](=O)[O-])cccn1Cc1cccc(Br)c1	inactive: 5.13%	–
Cc1ccc(-c2csc(N3CCN(CCCn4c(-c5ccncc5)nc5ccccc54)CC3)n2)cc1	–	inconclusive: 35.5 µM [falling, single point]
CNC(=S)N/N=C1\CC(c2ccccc2)Oc2ccccc21 (stereo not drawn)	inactive: -27.8%	–
CC(C)N(CC#CC(O)(c1ccccc1)c1ccccc1)C(C)C	inconclusive: -10.2%	–
O=C(/C=C/c1cccc([N+](=O)[O-])c1)OCC(=O)c1ccccc1	inconclusive: 10.7%	–
O=C(c1ccc(CS(=O)Cc2ccc(Cl)cc2)o1)N1CCN(c2ccccc2)CC1 (stereo not drawn)	inactive: 9.49%	–
COc1ccc(CN2C(=O)C(C)Nc3ncnc(N4CCOCC4)c32)cc1 (stereo not drawn)	inconclusive: 0.162%	–
COc1ccc(CNc2ccc([N+](=O)[O-])cc2C)cc1	inconclusive: -0.215%	–
COC(=O)COc1cccc(NC(=O)c2ccc(C)cc2)c1	–	inconclusive: 11.2 µM [falling, partial curve]
COCCNC(=O)/C(C#N)=C/c1cccc(NC(=O)c2ccccc2Cl)c1	inconclusive: -19.6%	–

SMILES	activity change, negative = inhibition	Potency
COc1ccc(-c2cc(C(F)(F)F)n3nc(C(=O)NCCCN4CCOCC4)cc3n2)cc1	inactive: -11.1%	–
Cc1occc1C(=O)Nc1ccc2c(c1)OCCO2	–	inconclusive: 11.2 µM [falling, partial curve]
COc1cc(OC)cc(C(=O)NNC(=O)NC2CCCCC2)c1	–	inconclusive: 10.3 µM [cytotoxic, partial curve]
Cn1c(N)c(C(=O)COC(=O)CCC2CCCC2)c(=O)n(C)c1=O	inconclusive: 13.4%	–
CC(C)(C)NC(=O)CN(C(=O)C1CSC(=O)C1)c1ccccc1F (stereo not drawn)	inactive: 13.8%	–
O=C(O)CSc1nnc(CSc2nc3ccccc3s2)n1-c1ccccc1	inactive: 11.5%	–
Cc1c(/C(O)=C2/C(=O)C(=O)N(Cc3cccnc3)C2c2cccs2)cnn1-c1ccccc1 (stereo not drawn)	–	inconclusive: 2.91 µM [rising, full curve, poor fit]
COc1ccc(OC)c(NC(=O)C23CC4CC(C2)CC(n2cnc(Br)n2)(C4)C3)c1	inactive: -1.75%	–
O=C(CN1c2ccccc2Sc2ccccc21)N/N=C/c1ccc([N+](=O)[O-])cc1	inactive: -2.56%	–
Cc1nc(-c2cnn(-c3ccccc3)c2)c2cc(C)oc2n1	–	inconclusive: 4.11 µM [rising, partial curve, poor fit]
O=C(NNC(=O)c1cc2cc3ccccc3nc2s1)c1cccc(C(F)(F)F)c1	inactive: -2.73%	–
Cc1ccc2nc3c(cc(S(=O)(=O)c4ccccc4)c(=N)n3Cc3ccco3)c(=O)n2c1	–	inconclusive: 35.5 µM [falling, single point]
CCC(C)(C)NC(=O)C(OC(=O)c1ccco1)c1ccccc1OC (stereo not drawn)	inconclusive: -0.921%	–
COc1ccc2sc(N(CCN(C)C)C(=O)/C=C/c3cccs3)nc2c1	–	inconclusive: 35.5 µM [falling, single point]
CC(C)C(NC(=O)c1ccc(S(=O)(=O)N2CCOCC2)cc1)c1nc2ccccc2[nH]1 (stereo not drawn)	inconclusive: 0.494%	–
O=C1NCCN1Cc1ccc(F)cc1	inconclusive: -8.69%	–
CC[C@H](C)[C@H](NC(N)=O)C(=O)NNC(=O)c1ccc(COc2cccc3cccnc23)cc1	–	inconclusive: 35.5 µM [falling, single point]
O=c1cc2oc3cc(O)c(O)cc3c(-c3ccccc3O)c-2cc1O	–	inconclusive: 22.4 µM [rising, partial curve, poor fit]
COC(=O)c1ccccc1S(=O)(=O)N1CCC(C(=O)NC2CCCCC2)CC1	inconclusive: 0.0802%	–
CCOCCCNc1ncnc2c1[nH]c1ccccc12	inactive: 21.6%	–
CCOc1ccc(CNC(=O)C2CCN(Cc3cc4ccccc4n3Cc3ccccc3C)CC2)cc1	inactive: -8.15%	–
C=CCn1c(=N)n(CC(O)COc2ccccc2OC)c2ccccc21 (stereo not drawn)	inactive: 4.33%	–
c1ccc(-c2csc(-c3ccncc3)n2)cc1	inconclusive: 4.8%	–
COc1ccc2c(c1)c1nc3ccccc3nc1n2CCn1c(=O)oc2ccccc21	inconclusive: -1.9%	–
COc1ccc(-c2[nH]ncc2CN(CC2CCC(=O)N2)C(C)C)cc1F (stereo not drawn)	–	inconclusive: 3.98 µM [falling, single point]
CCCS(=O)(=O)N1CCN(C2Cc3ccccc3C2)CC1	inconclusive: 2.16%	–

SMILES	activity change, negative = inhibition	Potency
CC(C)(C)c1ccc(S(=O)(=O)N2CCN(c3ncccn3)CC2)cc1	inconclusive: 0.439%	–
O=c1[nH]c(CS(=O)(=O)c2ccccc2)nc2ccccc12	–	inconclusive: 18.4 µM [falling, partial curve]
CN1CCc2cccc3c2[C@@H]1Cc1ccc(O)c(O)c1-3	–	inconclusive: 16.4 µM [falling, partial curve, poor fit]
CCN1CCC(CNCc2cn(-c3ccc(OC)cc3)nc2-c2ccccc2Cl)C1 (stereo not drawn)	–	inconclusive: 22.4 µM [falling, single point]
O=[N+]([O-])c1ccc(O)c(C=Nc2ccc3c(c2)OCO3)c1	–	inconclusive: 25.1 µM [falling, partial curve]
CC(C)C[C@H](CO)Nc1nc(N(C)c2cccc(Cl)c2)c2ncn(C(C)C)c2n1	inconclusive: -6.55%	–
Cc1c(C(=O)O)oc2ccc(S(=O)(=O)N3CCC(C)CC3)cc12	inconclusive: 0.492%	–
CN(CCc1ccccn1)C(=O)Nc1ccc(F)cc1	inactive: 0.304%	–
O=C(Nc1ccc(N2CCOCC2)c(Cl)c1)c1ccc(Br)o1	–	inconclusive: 29.1 µM [falling, single point]
Cc1c(C#N)c(O)[nH]c(=O)c1N=Nc1ccc(Br)cc1C(=O)O	inconclusive: -7.16%	–
Cc1ccc(-c2nnc(COC(=O)c3cc(=O)[nH]c4ccccc34)o2)cc1	inactive: -3.7%	–
COc1ccc(C(C)C)cc1S(=O)(=O)N1CCC(C(=O)NCC2CCCO2)CC1 (stereo not drawn)	inconclusive: 2.56%	–
COC(=O)CNC(=O)COC(=O)/C=C/c1ccc2ccccc2n1	inconclusive: -17.1%	–
CN1CCN(C(=O)/C(=C/c2ccc(F)cc2)NC(=O)c2ccccc2)CC1	inconclusive: -0.484%	–
O=C(O)c1ccccc1CSc1nnnn1-c1ccccc1	inconclusive: -15.2%	–
COc1ccc2c(C)c(CCC(=O)NC3CC3)c(=O)oc2c1	–	inconclusive: 3.98 µM [falling, partial curve]
COc1ccccc1OCCNC(=O)c1ccccc1C	inactive: -5.31%	–
CN(CC(=O)Nc1ccccc1Cl)C(=O)COC(=O)c1nc(Cl)c(Cl)c(Cl)c1Cl	inconclusive: -1.59%	–
Cc1cccc(NC(=O)CSc2ccc(-c3ccco3)nn2)c1C	inactive: -5.32%	–
C/C(=N\NS(C)(=O)=O)c1ccccc1	inconclusive: -17.8%	–
O=C(O)c1cc(-c2ccco2)nc2ccccc12	inactive: -3.3%	–
O=C(CN1C(=O)c2cccc([N+](=O)[O-])c2C1=O)NNC(=O)c1ccc(F)cc1	inactive: 4.92%	–
Cc1cc(C)cc(N(CC(=O)NCc2ccc(F)cc2)C(=O)c2snc(C(N)=O)c2N)c1	inconclusive: -0.313%	–
O=C1[C@H](Oc2ccccc2)[C@@H](c2ccccc2)N1c1ccncc1	–	inconclusive: 5.8 µM [falling, partial curve, poor fit]
Cc1ccc(-c2nc(NCCCO)c3ccccc3n2)cc1	inconclusive: 12.6%	–
Cc1ccc(NC(=O)CC2=NC(=O)C(CC(=O)Nc3ccccc3F)S2)cc1 (stereo not drawn)	inactive: -2.42%	–
